Source: the supplement of paper PMC4840960
± gives the standard deviation of the averaged measurements. Some of the results follow. Part of the spread comes from offsets between plates or batches.

System: E18 rat cortical neuron-glia co-culture
Test: total nuclei (DAPI) / Olig2+ nuclei (ratio); higher = more depletion of OPC/OL lineage cells
Settings: 1 µM; treatment time: 8 days (DIV5-DIV13)

Row | SMILES | total nuclei
1 | O=C(c1ccc(OCCN2CCCCC2)cc1)c1c(-c2ccc(O)cc2)sc2cc(O)ccc12 [Raloxifene] | 2.45
2 | CN(C)[C@@H]1C(O)=C(C(N)=O)C(=O)[C@@]2(O)C(O)=C3C(=O)c4c(O)cccc4C[C@H]3C[C@@H]12 [Sancycline] | 2.7
3 | C=CCc1ccc(O)c(-c2ccc(O)c(CC=C)c2)c1 [Honokiol] | 4.37
4 | COC1=CC(=O)C[C@@H](C)[C@]12Oc1c(Cl)c(OC)cc(OC)c1C2=O [Griseofulvin] | 2.39
5 | CC(C)(C(=O)c1cccnc1)c1cccnc1 [Metyrapone] | 3.3
6 | COc1cc(CNC(=O)CCCC/C=C\C(C)C)ccc1O [Zucapsaicin] | 4.42
7 | Cc1ncc([N+](=O)[O-])n1CC(O)CCl (stereo not drawn) [Ornidazole] | 2.63
8 | CN(C)CCC=C1c2ccccc2CCc2ccccc21 [Amitriptyline] | 3.96
9 | CCN1CC(CCN2CCOCC2)C(c2ccccc2)(c2ccccc2)C1=O (stereo not drawn) [Doxapram] | 2.88
10 | CCn1cc(C(=O)O)c(=O)c2ccc(C)nc21 [Nalidixic Acid] | 3.51
11 | Nc1c2c(nc3ccccc13)CCCC2 [Tacrine] | 3.44
12 | Cc1cnc(NC(=O)C2=C(O)c3ccccc3S(=O)(=O)N2C)s1 [Meloxicam] | 3.97
13 | COc1cc(/C=C/c2ccc(O)cc2)cc(OC)c1 [Pterostilbene] | 3.5
14 | CN(C)CCCN1c2ccccc2Sc2ccc(Cl)cc21 [Chlorpromazine] | 2.89
15 | CCOC(=O)C1=C(COCCN)NC(C)=C(C(=O)OC)C1c1ccccc1Cl (stereo not drawn) [Amlodipine] | 4.85
16 | Nc1ccc(O)c(C(=O)O)c1 [Mesalamine] | 4.34
17 | Nc1ccc2cn[nH]c2c1 [6-Aminoindazole] | 3.5
18 | COc1cc(C)c(Cc2cnc(N)nc2N)cc1OC [Ormetoprim] | 4.32
19 | CCN(CC)CC(=O)Nc1c(C)cccc1C [Lidocaine] | 4.69
20 | Cc1nc2n(c(=O)c1CCN1CCC(c3noc4cc(F)ccc34)CC1)CCCC2 [Risperidone] | 2.83

Row | SMILES | total nuclei
21 | C#C[C@]1(O)CC[C@H]2[C@@H]3CCC4=CC(=O)CC[C@@H]4[C@H]3CC[C@@]21CC [Levonorgestrel] | 3.3
22 | COc1ccccc1OCC(O)CN1CCN(CC(=O)Nc2c(C)cccc2C)CC1 (stereo not drawn) [Ranolazine] | 5.49
23 | C#C[C@]1(O)CC[C@H]2[C@@H]3CCc4cc(OC)ccc4[C@H]3CC[C@@]21C [Mestranol] | 2.64
24 | CC(=O)NC[C@H]1CN(c2ccc(N3CCOCC3)c(F)c2)C(=O)O1 [linezolid] | 2.8
25 | CO[C@@]1(NC(=O)Cc2cccs2)C(=O)N2C(C(=O)O)=C(COC(N)=O)CS[C@@H]21 [Cefoxitin] | 2.77
26 | CC[C@H]1OC(=O)[C@H](C)C(=O)[C@H](C)[C@@H](O[C@@H]2O[C@H](C)C[C@H](N(C)C)[C@H]2O)[C@](C)(OC)C[C@@H](C)C(=O)[C@H](C)[C@H]2N(CCCCn3cnc(-c4cccnc4)c3)C(=O)O[C@]12C [Telithromycin] | 4.7
27 | CCCCC(=O)N(Cc1ccc(-c2ccccc2-c2nnn[nH]2)cc1)[C@H](C(=O)O)C(C)C [Valsartan] | 2.7
28 | Cc1cccc(C)c1OCC(C)N (stereo not drawn) [Mexiletine] | 2.45
29 | CN(CCO)CC(O)Cn1cnc2c1c(=O)n(C)c(=O)n2C (stereo not drawn) [Jupal] | 2.8
30 | COc1cc(N)c(Cl)cc1C(=O)NC1CCN(CCCOc2ccc(F)cc2)CC1OC (stereo not drawn) [Cisapride] | 3.3
31 | CC(=O)O[C@@]12CO[C@@H]1C[C@H](O)[C@@]1(C)C(=O)[C@H](O)C3=C(C)[C@@H](OC(=O)[C@H](O)[C@@H](NC(=O)OC(C)(C)C)c4ccccc4)C[C@@](O)([C@@H](OC(=O)c4ccccc4)[C@H]21)C3(C)C [Docetaxel] | 37.3
32 | CC(CCc1ccccc1)NCC(O)c1ccc(O)c(C(N)=O)c1 (stereo not drawn) [Labetalol] | 3.03
33 | Fc1ccc([C@@H]2CCNC[C@H]2COc2ccc3c(c2)OCO3)cc1 [Paroxetine] | 4.39 ± 2.9
34 | OCc1cccnc1 [Nicotinyl Alcohol] | 2.7
35 | O=C(O)c1cc(/N=N/c2ccc(S(=O)(=O)Nc3ccccn3)cc2)ccc1O [Sulfasalazine] | 2.88
36 | COCCCC/C(=N\OCCN)c1ccc(C(F)(F)F)cc1 [Fluvoxamine] | 3.4
37 | C=C1/C(=C\C=C2/CCC[C@]3(C)[C@@H]([C@H](C)/C=C/[C@@H](O)C4CC4)CC[C@@H]23)C[C@@H](O)C[C@@H]1O [Calcipotriene] | 4
38 | CNC(=N)NCCC[C@H](N)C(=O)O | 3.41
39 | CCCCCNC(=N)N/N=C/c1c[nH]c2ccc(OC)cc12 [Tegaserod] | 2.8

Same assay, conditions: 5 µM; treatment time: 8 days (DIV5-DIV13)

Row | SMILES | total nuclei
40 | O=C(c1ccc(OCCN2CCCCC2)cc1)c1c(-c2ccc(O)cc2)sc2cc(O)ccc12 [Raloxifene] | 35
41 | CN(C)[C@@H]1C(O)=C(C(N)=O)C(=O)[C@@]2(O)C(O)=C3C(=O)c4c(O)cccc4C[C@H]3C[C@@H]12 [Sancycline] | 2.8
42 | C=CCc1ccc(O)c(-c2ccc(O)c(CC=C)c2)c1 [Honokiol] | > 40
43 | COC1=CC(=O)C[C@@H](C)[C@]12Oc1c(Cl)c(OC)cc(OC)c1C2=O [Griseofulvin] | 2.9
44 | CC(C)(C(=O)c1cccnc1)c1cccnc1 [Metyrapone] | 3.6
45 | COc1cc(CNC(=O)CCCC/C=C\C(C)C)ccc1O [Zucapsaicin] | 12.3
46 | Cc1ncc([N+](=O)[O-])n1CC(O)CCl (stereo not drawn) [Ornidazole] | 2.6
47 | CN(C)CCC=C1c2ccccc2CCc2ccccc21 [Amitriptyline] | 6.4
48 | CCN1CC(CCN2CCOCC2)C(c2ccccc2)(c2ccccc2)C1=O (stereo not drawn) [Doxapram] | 2.8
49 | CCn1cc(C(=O)O)c(=O)c2ccc(C)nc21 [Nalidixic Acid] | 3.9
50 | Nc1c2c(nc3ccccc13)CCCC2 [Tacrine] | 3.3
51 | Cc1cnc(NC(=O)C2=C(O)c3ccccc3S(=O)(=O)N2C)s1 [Meloxicam] | 4.1
52 | COc1cc(/C=C/c2ccc(O)cc2)cc(OC)c1 [Pterostilbene] | 19.1
53 | CN(C)CCCN1c2ccccc2Sc2ccc(Cl)cc21 [Chlorpromazine] | 5.3
54 | CCOC(=O)C1=C(COCCN)NC(C)=C(C(=O)OC)C1c1ccccc1Cl (stereo not drawn) [Amlodipine] | > 40
55 | Nc1ccc(O)c(C(=O)O)c1 [Mesalamine] | 4.1
56 | Nc1ccc2cn[nH]c2c1 [6-Aminoindazole] | 2.8
57 | COc1cc(C)c(Cc2cnc(N)nc2N)cc1OC [Ormetoprim] | 4.2
58 | CCN(CC)CC(=O)Nc1c(C)cccc1C [Lidocaine] | 4.9
59 | Cc1nc2n(c(=O)c1CCN1CCC(c3noc4cc(F)ccc34)CC1)CCCC2 [Risperidone] | 2.9

Row | SMILES | total nuclei
60 | C#C[C@]1(O)CC[C@H]2[C@@H]3CCC4=CC(=O)CC[C@@H]4[C@H]3CC[C@@]21CC [Levonorgestrel] | 4.6
61 | COc1ccccc1OCC(O)CN1CCN(CC(=O)Nc2c(C)cccc2C)CC1 (stereo not drawn) [Ranolazine] | 5.1
62 | C#C[C@]1(O)CC[C@H]2[C@@H]3CCc4cc(OC)ccc4[C@H]3CC[C@@]21C [Mestranol] | 3.3
63 | CC(=O)NC[C@H]1CN(c2ccc(N3CCOCC3)c(F)c2)C(=O)O1 [linezolid] | 2.8
64 | CO[C@@]1(NC(=O)Cc2cccs2)C(=O)N2C(C(=O)O)=C(COC(N)=O)CS[C@@H]21 [Cefoxitin] | 2.8
65 | CC[C@H]1OC(=O)[C@H](C)C(=O)[C@H](C)[C@@H](O[C@@H]2O[C@H](C)C[C@H](N(C)C)[C@H]2O)[C@](C)(OC)C[C@@H](C)C(=O)[C@H](C)[C@H]2N(CCCCn3cnc(-c4cccnc4)c3)C(=O)O[C@]12C [Telithromycin] | > 40
66 | CCCCC(=O)N(Cc1ccc(-c2ccccc2-c2nnn[nH]2)cc1)[C@H](C(=O)O)C(C)C [Valsartan] | 2.6
67 | Cc1cccc(C)c1OCC(C)N (stereo not drawn) [Mexiletine] | 2.5
68 | CN(CCO)CC(O)Cn1cnc2c1c(=O)n(C)c(=O)n2C (stereo not drawn) [Jupal] | 2.9
69 | COc1cc(N)c(Cl)cc1C(=O)NC1CCN(CCCOc2ccc(F)cc2)CC1OC (stereo not drawn) [Cisapride] | 3.4
70 | CC(=O)O[C@@]12CO[C@@H]1C[C@H](O)[C@@]1(C)C(=O)[C@H](O)C3=C(C)[C@@H](OC(=O)[C@H](O)[C@@H](NC(=O)OC(C)(C)C)c4ccccc4)C[C@@](O)([C@@H](OC(=O)c4ccccc4)[C@H]21)C3(C)C [Docetaxel] | 38.1
71 | CC(CCc1ccccc1)NCC(O)c1ccc(O)c(C(N)=O)c1 (stereo not drawn) [Labetalol] | 2.8
72 | Fc1ccc([C@@H]2CCNC[C@H]2COc2ccc3c(c2)OCO3)cc1 [Paroxetine] | 7.25 ± 6
73 | OCc1cccnc1 [Nicotinyl Alcohol] | 2.9
74 | O=C(O)c1cc(/N=N/c2ccc(S(=O)(=O)Nc3ccccn3)cc2)ccc1O [Sulfasalazine] | 2.9
75 | COCCCC/C(=N\OCCN)c1ccc(C(F)(F)F)cc1 [Fluvoxamine] | 3.8
76 | C=C1/C(=C\C=C2/CCC[C@]3(C)[C@@H]([C@H](C)/C=C/[C@@H](O)C4CC4)CC[C@@H]23)C[C@@H](O)C[C@@H]1O [Calcipotriene] | 11.8
77 | CNC(=N)NCCC[C@H](N)C(=O)O | 4.9
78 | CCCCCNC(=N)N/N=C/c1c[nH]c2ccc(OC)cc12 [Tegaserod] | > 40
